Paper PMC1808117
These are yes or no findings as the source states them, for the method shown. In cells and extracts the contact can be indirect. Sequences can lack the tags named with a protein.

Chains of the proteins cited; added tags and fusions are not shown.
UniProt Q99717: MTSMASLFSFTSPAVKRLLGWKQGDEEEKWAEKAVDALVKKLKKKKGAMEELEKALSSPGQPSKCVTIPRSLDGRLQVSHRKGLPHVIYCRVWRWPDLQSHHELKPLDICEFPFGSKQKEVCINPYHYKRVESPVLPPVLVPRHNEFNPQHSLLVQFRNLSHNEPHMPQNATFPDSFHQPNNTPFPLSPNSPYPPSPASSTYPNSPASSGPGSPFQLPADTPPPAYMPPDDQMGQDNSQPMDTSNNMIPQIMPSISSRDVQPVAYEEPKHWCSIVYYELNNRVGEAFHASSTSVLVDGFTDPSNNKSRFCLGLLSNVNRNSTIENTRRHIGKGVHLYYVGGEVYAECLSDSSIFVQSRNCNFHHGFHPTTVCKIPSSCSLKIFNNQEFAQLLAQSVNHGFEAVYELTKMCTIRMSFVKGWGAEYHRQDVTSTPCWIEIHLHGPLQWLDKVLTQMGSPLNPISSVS
UniProt O15198: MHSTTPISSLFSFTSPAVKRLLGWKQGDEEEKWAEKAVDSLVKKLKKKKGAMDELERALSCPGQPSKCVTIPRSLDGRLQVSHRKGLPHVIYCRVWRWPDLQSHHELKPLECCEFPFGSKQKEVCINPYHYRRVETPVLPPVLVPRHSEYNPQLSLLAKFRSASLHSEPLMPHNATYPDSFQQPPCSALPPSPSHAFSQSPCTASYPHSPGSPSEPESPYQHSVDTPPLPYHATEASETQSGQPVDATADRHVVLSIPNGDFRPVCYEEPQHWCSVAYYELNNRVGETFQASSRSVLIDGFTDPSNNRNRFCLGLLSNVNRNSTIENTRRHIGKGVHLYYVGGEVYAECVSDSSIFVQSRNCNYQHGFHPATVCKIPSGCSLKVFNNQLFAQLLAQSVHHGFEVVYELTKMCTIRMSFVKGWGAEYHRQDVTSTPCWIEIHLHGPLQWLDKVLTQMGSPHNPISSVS
UniProt Q15797: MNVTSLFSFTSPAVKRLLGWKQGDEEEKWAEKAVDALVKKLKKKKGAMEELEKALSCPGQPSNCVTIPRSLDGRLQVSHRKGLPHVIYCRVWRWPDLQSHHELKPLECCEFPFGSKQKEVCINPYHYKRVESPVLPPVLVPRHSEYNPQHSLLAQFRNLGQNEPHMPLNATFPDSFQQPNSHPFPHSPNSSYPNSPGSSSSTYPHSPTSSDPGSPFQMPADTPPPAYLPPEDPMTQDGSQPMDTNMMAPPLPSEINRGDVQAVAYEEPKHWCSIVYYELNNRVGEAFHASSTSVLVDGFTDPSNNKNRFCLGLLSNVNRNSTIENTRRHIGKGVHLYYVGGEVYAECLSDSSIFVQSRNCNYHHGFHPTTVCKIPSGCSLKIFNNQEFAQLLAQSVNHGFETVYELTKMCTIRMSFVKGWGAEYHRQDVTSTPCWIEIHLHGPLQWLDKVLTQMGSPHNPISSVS

Target: T1, N-terminal GFP-tagged Arkadia (Mus musculus) (UniProt Q99ML9)
T1 sequence: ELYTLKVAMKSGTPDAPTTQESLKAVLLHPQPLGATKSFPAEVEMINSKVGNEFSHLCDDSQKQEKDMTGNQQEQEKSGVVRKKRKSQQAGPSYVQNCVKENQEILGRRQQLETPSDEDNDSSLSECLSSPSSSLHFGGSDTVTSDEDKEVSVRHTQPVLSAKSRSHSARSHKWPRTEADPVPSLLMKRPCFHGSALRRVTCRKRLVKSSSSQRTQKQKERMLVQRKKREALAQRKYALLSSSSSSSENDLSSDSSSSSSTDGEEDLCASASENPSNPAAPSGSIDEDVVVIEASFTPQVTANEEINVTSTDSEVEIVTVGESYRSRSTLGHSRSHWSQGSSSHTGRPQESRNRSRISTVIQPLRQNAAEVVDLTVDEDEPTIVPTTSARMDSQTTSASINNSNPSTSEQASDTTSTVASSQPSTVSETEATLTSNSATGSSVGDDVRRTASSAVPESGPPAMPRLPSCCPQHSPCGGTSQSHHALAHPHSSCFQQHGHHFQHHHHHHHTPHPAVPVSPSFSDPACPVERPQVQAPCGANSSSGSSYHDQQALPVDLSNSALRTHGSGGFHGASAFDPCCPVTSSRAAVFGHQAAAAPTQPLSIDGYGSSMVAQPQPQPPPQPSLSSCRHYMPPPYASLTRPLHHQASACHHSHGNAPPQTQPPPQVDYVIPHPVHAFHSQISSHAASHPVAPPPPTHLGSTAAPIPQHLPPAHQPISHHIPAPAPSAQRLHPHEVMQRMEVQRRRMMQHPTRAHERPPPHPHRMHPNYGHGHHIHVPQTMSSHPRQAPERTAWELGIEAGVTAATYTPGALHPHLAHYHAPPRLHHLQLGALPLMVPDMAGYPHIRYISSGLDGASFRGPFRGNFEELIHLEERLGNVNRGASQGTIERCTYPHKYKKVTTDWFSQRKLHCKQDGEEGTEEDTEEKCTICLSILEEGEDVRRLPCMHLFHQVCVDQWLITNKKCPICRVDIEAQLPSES
Experiment: co-IP; IP with anti-GFP antibody from 293T cells transfected with ALK6*, all three myc-Smad1/5/8 plasmids and GFP or GFP-tagged Arkadia constructs; blotted with anti-P-Smad1/5/8 or anti-GFP

Substance: phosphorylated myc-Smad5 (from UniProt Q99717 1-465)
- binding: no binding

Substance: phosphorylated myc-Smad8 (from UniProt O15198 1-467)
- binding: no binding

Substance: phosphorylated myc-Smad1 (from UniProt Q15797 1-465)
- binding: no binding
